These are yes or no findings as the source states them, for the method shown. A result given as binding can be weak or reduced; the word gives no strength. Tags and fused reporters may be left off the sequences shown.
Target: EXO70E1 (in pGBKT7) (Arabidopsis) (UniProt Q9LIA2)
Assay: two-hybrid; bait in pGBKT7, prey in pGADT7, Gold Yeast Y2H; growth on SD/(-Trp-Leu-His-Ade) (QDO) medium for 3 days

B1: AD-BOI (protein, UniProt O81851 1-304)
chain: MAVQAHHMNIFSQFISPNRDCVKFQENMNHGEFEFTGGEVPLITGESFAVEPLAAKANFNKAESGLSYNFTVPPLSTKRQRDFQFSDSNAPVKRRSVAFDSSSPSLINVELVSQIQNQQQSEIDRFVAQQTEKLRIEIEARQQTQTRMLASAVQNVIAKKLKEKDDEIVRIRNLNWVLQERVKSLYVENQIWRDIAQTNEANANTLRTNLDQVLAQLETFPTASAVVEDDAESSCGSCCGDGGGEAVTAVGGGCKRCGEREASVLVLPCRHLCLCTVCGGSALLRTCPVCDMVMNASVHVNMSS
In the case of B1, the binding is reported as “binds”.

Source: article PMC11432932
